Laboratory results as given in the supplement of paper PMC10849652.
This is one part of the list.

Protein sequences, listed by entry. Tags and fused reporters are not part of them. Lines headed by an entry give the natural chain unless they say otherwise; changes in a name come on top.
UniProt Q8WXE1: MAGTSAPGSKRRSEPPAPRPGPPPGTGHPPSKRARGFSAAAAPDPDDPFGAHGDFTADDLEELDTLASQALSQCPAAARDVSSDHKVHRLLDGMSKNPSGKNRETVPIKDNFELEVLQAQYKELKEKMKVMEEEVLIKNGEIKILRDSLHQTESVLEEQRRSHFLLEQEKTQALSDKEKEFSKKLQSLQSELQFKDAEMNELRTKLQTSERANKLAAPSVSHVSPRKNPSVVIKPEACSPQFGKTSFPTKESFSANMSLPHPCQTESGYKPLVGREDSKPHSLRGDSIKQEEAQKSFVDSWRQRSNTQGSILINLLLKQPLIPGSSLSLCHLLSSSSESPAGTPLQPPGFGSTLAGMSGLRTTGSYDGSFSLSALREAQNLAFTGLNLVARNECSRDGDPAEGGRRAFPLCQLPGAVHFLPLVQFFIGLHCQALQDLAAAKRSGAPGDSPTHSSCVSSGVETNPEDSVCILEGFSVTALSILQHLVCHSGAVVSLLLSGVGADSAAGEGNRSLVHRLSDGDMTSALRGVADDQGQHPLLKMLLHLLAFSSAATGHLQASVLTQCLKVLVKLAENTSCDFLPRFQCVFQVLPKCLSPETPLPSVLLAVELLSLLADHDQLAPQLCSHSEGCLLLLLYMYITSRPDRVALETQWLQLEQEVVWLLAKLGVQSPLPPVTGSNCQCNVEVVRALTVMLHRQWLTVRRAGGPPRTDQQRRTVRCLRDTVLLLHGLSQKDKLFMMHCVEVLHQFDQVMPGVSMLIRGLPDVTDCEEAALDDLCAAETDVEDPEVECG
UniProt Q9C0F0: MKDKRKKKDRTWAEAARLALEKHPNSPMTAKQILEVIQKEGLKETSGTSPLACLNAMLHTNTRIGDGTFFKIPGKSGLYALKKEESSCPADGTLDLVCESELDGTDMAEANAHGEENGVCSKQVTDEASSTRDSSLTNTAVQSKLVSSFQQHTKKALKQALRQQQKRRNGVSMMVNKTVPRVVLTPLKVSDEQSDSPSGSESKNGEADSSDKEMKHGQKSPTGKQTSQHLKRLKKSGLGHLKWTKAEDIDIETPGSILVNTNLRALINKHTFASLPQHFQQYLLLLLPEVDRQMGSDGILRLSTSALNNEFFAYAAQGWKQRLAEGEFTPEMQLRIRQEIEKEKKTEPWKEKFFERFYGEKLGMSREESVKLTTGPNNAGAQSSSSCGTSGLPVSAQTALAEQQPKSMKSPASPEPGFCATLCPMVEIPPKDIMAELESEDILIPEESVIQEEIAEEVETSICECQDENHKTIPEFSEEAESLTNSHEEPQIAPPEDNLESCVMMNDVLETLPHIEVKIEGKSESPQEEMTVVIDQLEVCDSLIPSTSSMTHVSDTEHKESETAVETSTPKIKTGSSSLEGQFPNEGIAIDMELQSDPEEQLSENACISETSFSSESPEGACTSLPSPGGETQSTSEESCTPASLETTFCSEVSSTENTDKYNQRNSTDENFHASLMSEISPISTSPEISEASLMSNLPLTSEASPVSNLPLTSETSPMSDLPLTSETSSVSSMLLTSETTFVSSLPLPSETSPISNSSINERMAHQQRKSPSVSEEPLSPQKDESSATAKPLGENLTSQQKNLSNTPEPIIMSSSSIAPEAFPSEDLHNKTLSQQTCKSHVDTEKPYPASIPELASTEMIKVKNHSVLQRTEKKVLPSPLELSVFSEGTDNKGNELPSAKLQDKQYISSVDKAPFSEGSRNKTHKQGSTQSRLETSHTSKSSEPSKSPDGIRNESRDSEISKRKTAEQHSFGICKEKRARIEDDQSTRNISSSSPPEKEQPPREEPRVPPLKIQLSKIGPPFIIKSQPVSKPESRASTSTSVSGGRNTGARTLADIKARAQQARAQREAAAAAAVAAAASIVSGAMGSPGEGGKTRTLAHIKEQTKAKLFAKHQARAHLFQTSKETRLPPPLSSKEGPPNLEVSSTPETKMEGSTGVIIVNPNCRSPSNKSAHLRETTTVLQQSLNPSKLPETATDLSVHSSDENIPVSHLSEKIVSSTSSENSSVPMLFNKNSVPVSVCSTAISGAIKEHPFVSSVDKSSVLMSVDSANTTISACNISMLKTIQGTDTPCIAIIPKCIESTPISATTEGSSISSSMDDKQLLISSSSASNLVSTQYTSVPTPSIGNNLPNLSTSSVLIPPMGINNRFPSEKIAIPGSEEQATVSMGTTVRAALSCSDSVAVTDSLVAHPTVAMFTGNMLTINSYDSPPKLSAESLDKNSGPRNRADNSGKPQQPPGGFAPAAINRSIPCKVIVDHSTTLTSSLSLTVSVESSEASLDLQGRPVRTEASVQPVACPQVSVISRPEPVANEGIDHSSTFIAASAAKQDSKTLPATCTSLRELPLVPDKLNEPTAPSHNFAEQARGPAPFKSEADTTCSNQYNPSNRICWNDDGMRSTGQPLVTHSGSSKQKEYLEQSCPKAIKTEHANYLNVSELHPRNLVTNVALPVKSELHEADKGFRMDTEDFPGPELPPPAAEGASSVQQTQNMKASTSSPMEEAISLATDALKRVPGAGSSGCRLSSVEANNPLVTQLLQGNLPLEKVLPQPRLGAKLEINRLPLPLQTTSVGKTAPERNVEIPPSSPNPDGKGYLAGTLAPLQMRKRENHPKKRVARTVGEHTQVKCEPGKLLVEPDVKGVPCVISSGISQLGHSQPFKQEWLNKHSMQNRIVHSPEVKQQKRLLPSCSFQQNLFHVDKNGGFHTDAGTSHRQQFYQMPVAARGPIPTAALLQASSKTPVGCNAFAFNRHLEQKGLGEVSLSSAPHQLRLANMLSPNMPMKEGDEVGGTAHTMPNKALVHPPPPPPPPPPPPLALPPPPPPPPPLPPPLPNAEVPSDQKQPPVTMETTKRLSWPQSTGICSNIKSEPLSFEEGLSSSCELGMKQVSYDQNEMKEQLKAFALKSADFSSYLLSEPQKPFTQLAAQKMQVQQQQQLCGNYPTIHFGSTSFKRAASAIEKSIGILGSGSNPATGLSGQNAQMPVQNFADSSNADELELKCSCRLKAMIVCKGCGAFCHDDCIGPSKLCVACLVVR
UniProt Q9H0Y0: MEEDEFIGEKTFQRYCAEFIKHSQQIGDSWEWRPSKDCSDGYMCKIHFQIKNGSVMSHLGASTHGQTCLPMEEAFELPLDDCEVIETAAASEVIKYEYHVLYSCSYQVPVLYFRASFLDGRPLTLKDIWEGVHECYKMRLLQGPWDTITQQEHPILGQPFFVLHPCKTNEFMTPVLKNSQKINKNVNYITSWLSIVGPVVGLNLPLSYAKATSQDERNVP
UniProt Q96GD4, whole entry, looked up: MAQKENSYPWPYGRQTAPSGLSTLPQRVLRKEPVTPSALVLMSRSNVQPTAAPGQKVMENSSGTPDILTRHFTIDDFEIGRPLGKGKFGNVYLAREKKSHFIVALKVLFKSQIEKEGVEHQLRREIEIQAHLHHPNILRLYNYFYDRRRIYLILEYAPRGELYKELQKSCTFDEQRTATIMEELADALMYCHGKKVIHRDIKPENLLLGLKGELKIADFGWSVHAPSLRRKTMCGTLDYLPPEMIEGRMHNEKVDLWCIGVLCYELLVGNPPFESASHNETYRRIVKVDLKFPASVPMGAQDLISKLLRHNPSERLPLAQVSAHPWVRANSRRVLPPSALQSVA
UniProt P18850: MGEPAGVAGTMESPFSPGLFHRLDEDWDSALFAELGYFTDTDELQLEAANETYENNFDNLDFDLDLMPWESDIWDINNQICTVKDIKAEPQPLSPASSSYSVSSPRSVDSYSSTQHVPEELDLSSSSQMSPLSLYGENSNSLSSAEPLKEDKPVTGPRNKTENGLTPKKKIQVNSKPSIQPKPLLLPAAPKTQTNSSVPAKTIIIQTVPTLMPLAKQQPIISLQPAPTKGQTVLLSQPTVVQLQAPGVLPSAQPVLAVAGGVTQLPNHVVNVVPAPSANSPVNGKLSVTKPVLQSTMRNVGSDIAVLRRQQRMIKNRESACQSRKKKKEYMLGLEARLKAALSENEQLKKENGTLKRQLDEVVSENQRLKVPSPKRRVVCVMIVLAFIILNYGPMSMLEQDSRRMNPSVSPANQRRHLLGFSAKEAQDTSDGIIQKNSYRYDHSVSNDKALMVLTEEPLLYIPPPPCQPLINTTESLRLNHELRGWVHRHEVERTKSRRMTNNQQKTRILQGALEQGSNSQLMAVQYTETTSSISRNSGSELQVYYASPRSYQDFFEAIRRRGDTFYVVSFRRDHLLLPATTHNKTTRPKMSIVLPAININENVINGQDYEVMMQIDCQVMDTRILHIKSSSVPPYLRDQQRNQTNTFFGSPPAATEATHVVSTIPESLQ
UniProt Q6UW56: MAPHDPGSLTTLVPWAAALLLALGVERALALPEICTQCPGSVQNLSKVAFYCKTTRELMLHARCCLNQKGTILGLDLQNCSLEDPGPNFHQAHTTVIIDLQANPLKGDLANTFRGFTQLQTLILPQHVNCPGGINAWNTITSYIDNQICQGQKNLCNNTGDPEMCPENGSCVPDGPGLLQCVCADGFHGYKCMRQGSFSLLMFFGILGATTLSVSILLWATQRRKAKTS
UniProt Q6ZNE5, whole entry, looked up: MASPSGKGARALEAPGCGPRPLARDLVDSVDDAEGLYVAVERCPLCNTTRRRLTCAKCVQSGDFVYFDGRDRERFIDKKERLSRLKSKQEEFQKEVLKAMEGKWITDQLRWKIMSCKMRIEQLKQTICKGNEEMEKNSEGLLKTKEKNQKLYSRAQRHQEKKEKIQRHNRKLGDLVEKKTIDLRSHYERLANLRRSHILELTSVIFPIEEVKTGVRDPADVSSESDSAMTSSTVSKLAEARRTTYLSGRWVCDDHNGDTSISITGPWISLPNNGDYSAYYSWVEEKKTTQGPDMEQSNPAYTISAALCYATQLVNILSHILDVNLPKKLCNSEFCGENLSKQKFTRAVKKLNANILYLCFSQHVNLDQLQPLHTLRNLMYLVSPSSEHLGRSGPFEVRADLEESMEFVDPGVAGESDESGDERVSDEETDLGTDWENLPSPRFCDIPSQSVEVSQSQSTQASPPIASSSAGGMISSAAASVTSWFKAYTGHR
UniProt P18847: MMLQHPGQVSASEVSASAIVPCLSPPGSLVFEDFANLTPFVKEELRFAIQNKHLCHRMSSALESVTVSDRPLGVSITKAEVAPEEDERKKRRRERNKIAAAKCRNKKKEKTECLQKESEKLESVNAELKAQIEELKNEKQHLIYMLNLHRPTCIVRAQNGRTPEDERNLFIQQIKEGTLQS
UniProt Q9H7T9: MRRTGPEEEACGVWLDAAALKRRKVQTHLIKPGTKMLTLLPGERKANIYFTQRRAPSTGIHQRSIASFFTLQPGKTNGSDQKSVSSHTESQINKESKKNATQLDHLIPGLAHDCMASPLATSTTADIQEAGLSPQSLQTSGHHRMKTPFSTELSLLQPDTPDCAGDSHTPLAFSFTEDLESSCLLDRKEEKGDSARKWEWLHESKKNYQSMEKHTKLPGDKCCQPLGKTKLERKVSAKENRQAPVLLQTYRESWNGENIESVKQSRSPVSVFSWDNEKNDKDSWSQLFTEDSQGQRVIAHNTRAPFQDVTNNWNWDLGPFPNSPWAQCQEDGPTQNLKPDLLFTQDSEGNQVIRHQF
UniProt P36542: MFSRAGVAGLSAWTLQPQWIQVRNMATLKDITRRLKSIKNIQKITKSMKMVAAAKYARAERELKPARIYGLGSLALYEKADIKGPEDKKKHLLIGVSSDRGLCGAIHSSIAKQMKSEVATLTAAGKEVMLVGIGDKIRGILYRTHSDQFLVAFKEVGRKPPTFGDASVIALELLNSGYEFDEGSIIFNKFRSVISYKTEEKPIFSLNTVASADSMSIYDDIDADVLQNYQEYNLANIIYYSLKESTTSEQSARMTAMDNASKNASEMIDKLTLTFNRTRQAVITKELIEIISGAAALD
UniProt Q96L58: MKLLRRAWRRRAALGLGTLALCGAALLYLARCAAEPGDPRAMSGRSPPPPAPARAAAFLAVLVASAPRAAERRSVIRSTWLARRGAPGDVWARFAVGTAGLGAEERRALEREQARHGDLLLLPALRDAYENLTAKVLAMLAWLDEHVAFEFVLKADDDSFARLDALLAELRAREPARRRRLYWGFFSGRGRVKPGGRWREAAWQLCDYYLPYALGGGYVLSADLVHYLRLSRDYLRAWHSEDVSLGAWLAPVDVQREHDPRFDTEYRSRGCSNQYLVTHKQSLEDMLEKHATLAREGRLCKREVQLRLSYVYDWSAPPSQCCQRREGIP
UniProt Q96GX2: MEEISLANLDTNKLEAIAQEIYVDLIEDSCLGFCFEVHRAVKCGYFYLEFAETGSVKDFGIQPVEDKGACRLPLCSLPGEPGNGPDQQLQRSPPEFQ

Legend:
Experiment in all cases: log2 fold change, soluble protein after heating vs DMSO (PISA); higher = thermal stabilisation; K562 lysate, 10 uM; active = over 0.2 and 3.5 SD of the protein, either way, in both replicates (recomputed)
lapatinib = compound: CS(=O)(=O)CCNCc1ccc(-c2ccc3ncnc(Nc4ccc(OCc5cccc(F)c5)c(Cl)c4)c3c2)o1 [lapatinib]
Summary of the method: (§1)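 The values are log-two fold changes in thermal stability compared with solvent controls and come from duplicates. They were obtained by TMTpro 16plex LC-MS/MS, with channel sums equalised, on the supernatant after 21,000xg for 90 min. That supernatant came from crude K562 extract at 1 mg/mL protein treated with 10 μM compound for 30 min, heated for 3 min across 48°C-58°C, pooled and brought to 0.5% NP-40 at 4°C.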

pictilisib = compound: CS(=O)(=O)N1CCN(Cc2cc3nc(-c4cccc5[nH]ncc45)nc(N4CCOCC4)c3s2)CC1 [pictilisib]
Summary of the method: as §1

crizotinib = compound: C[C@@H](Oc1cc(-c2cnn(C3CCNCC3)c2)cnc1N)c1c(Cl)ccc(F)c1Cl [crizotinib]
Summary of the method: as §1

[1] = compound: C[C@H](C1=CC=C(C=C1)C(=O)NC2=C3C=CNC3=NC=C2)N
Summary of the method: as §1

duvelisib = compound: C[C@H](Nc1ncnc2nc[nH]c12)c1cc2cccc(Cl)c2c(=O)n1-c1ccccc1 [duvelisib]
Summary of the method: as §1

gandotinib = compound: Cc1cc(Nc2cc(CN3CCOCC3)c3nc(C)c(Cc4ccc(Cl)cc4F)n3n2)n[nH]1 [gandotinib]
Summary of the method: as §1

tozasertib = compound: Cc1cc(Nc2cc(N3CCN(C)CC3)nc(Sc3ccc(NC(=O)C4CC4)cc3)n2)n[nH]1 [tozasertib]
Summary of the method: as §1

doramapimod = compound: Cc1ccc(-n2nc(C(C)(C)C)cc2NC(=O)Nc2ccc(OCCN3CCOCC3)c3ccccc23)cc1 [doramapimod]
Summary of the method: as §1

bafetinib = compound: Cc1ccc(NC(=O)c2ccc(CN3CC[C@H](N(C)C)C3)c(C(F)(F)F)c2)cc1Nc1nccc(-c2cncnc2)n1 [bafetinib]
Summary of the method: as §1

[2] = compound: Cc1cccc(CC(=O)N2CCc3c2ccc(-c2cn(C)c4ncnc(N)c24)c3F)n1
Summary of the method: as §1

nilotinib = compound: Cc1cn(-c2cc(NC(=O)c3ccc(C)c(Nc4nccc(-c5cccnc5)n4)c3)cc(C(F)(F)F)c2)cn1 [nilotinib]
Summary of the method: as §1

[3] = compound: Cc1nc(Nc2n[nH]c3c2CN(C(=O)N[C@H](CN(C)C)c2ccccc2)C3(C)C)c2sccc2n1
Summary of the method: as §1

dasatinib = compound: Cc1nc(Nc2ncc(C(=O)Nc3c(C)cccc3Cl)s2)cc(N2CCN(CCO)CC2)n1 [dasatinib]
Summary of the method: as §1

[4] = compound: Cc1ncc(-c2ccnc(Nc3ccc(S(C)(=O)=O)cc3)n2)n1C(C)C
Summary of the method: as §1

[5] = compound: Cn1cc(-c2ccc3c(c2)CCN3C(=O)Cc2cccc(C(F)(F)F)c2)c2c(N)ncnc21
Summary of the method: as §1

quisinostat = compound: Cn1cc(CNCC2CCN(c3ncc(C(=O)NO)cn3)CC2)c2ccccc21 [quisinostat]
Summary of the method: as §1

tipifarnib = compound: Cn1cncc1[C@@](N)(c1ccc(Cl)cc1)c1ccc2c(c1)c(-c1cccc(Cl)c1)cc(=O)n2C [tipifarnib]
Summary of the method: as §1

[6] = compound: NC(=O)Nc1cc(-c2cccc(F)c2)sc1C(=O)N[C@H]1CCCNC1
Summary of the method: as §1

[7] = compound: NC(=O)c1cnc(N[C@@H]2CCCC[C@@H]2N)nc1Nc1cccc(-n2nccn2)c1
Summary of the method: as §1

[8] = compound: NC1(c2ccc(-c3nc4ccn5c(=O)[nH]nc5c4cc3-c3ccccc3)cc2)CCC1
Summary of the method: as §1

Measured: log2 fold change

ATRIP (UniProt Q8WXE1)
inactive: lapatinib -0.046 | pictilisib 0.187 | crizotinib 0.012 | [1] -0.034 | duvelisib -0.016 | gandotinib -0.056 | tozasertib 0.097 | doramapimod 0.001 | bafetinib -0.035 | [2] 0.006 | nilotinib -0.014 | [3] -0.028 | dasatinib -0.059 | [4] 0.071 | [5] 0.045 | quisinostat -0.03 | tipifarnib -0.049 | [6] -0.007 | [7] 0.01 | [8] 0.032

AZI2 (UniProt Q9H6S1)
inactive: lapatinib 0.01 | pictilisib 0 | crizotinib 0.051 | [1] -0.019 | duvelisib -0.004 | gandotinib 0.234 | tozasertib 0.138 | doramapimod 0.114 | bafetinib -0.066 | [2] -0.136 | nilotinib -0.047 | [3] -0.012 | dasatinib 0.03 | [4] -0.005 | [5] -0.013 | quisinostat -0.082 | tipifarnib -0.032 | [6] -0.099 | [7] 0.109 | [8] -0.066

ATP2A2 (UniProt P16615)
inactive: lapatinib -0.003 | pictilisib 0.004 | crizotinib -0.051 | [1] -0.071 | duvelisib -0.033 | gandotinib -0.042 | tozasertib 0.034 | doramapimod 0.036 | bafetinib -0.045 | [2] 0.104 | nilotinib -0.016 | [3] 0.029 | dasatinib -0.016 | [4] -0.015 | [5] -0.042 | quisinostat -0.002 | tipifarnib -0.011 | [6] -0.004 | [7] 0.007 | [8] -0.03

ATXN2 (UniProt F8WB06)
inactive: duvelisib 0.187 | dasatinib -0.074 | [5] -0.053

ASXL3 (UniProt Q9C0F0)
inactive: lapatinib -0.109 | crizotinib 0.071 | doramapimod -0.131 | quisinostat -0.062 | [6] -0.019 | [7] -0.009 | [8] 0.018

ATG10 (UniProt Q9H0Y0)
inactive: pictilisib -0.051 | crizotinib -0.008 | [1] 0.021 | duvelisib 0.065 | gandotinib -0.023 | tozasertib -0.087 | doramapimod -0.014 | bafetinib 0.012 | [2] 0.063 | nilotinib -0.064 | [3] 0.026 | dasatinib 0.043 | [4] -0.16 | [5] -0.068 | quisinostat 0.015 | tipifarnib 0.125 | [6] -0.01 | [8] 0.016

ASNSD1 (UniProt Q9NWL6)
inactive: pictilisib 0.036 | [1] -0.036 | gandotinib 0.01 | tozasertib -0.007 | bafetinib 0 | [2] 0.055 | nilotinib -0.017 | [3] 0.031 | [4] 0.071 | tipifarnib -0.031 | [8] 0.023

AURKB isoform 5 (UniProt Q96GD4)
inactive: pictilisib -0.042 | [1] -0.036 | duvelisib -0.023 | gandotinib 0.673 | tozasertib 0.318 | doramapimod -0.027 | bafetinib 0.02 | [2] 0.043 | nilotinib -0.175 | [3] 0.008 | dasatinib 0.195 | [4] 0.073 | [5] 0.206 | quisinostat -0.124 | tipifarnib -0.043 | [6] 0.741 | [8] -0.072

ATP5F1B (UniProt F8W0P7)
inactive: duvelisib -0.01 | dasatinib 0.106 | [5] 0.002 | [8] -0.096

ATF6 (UniProt P18850)
inactive: tozasertib 0.135 | [8] -0.166

ATRAID isoform 3 (UniProt Q6UW56)
inactive: lapatinib 0.009 | crizotinib 0.035 | duvelisib 0.007 | tozasertib 0.013 | doramapimod 0.032 | nilotinib -0.045 | [3] -0.001 | dasatinib 0.034 | [4] 0.046 | [5] -0.038 | quisinostat -0.162 | tipifarnib 0.042 | [6] 0.026 | [7] -0.013 | [8] -0.027

ATG14 (UniProt Q6ZNE5)
inactive: pictilisib 0.02 | duvelisib 0.085 | tozasertib 0.101 | bafetinib 0.022 | nilotinib 0.087 | [3] -0.072 | dasatinib 0.055 | [4] -0.134 | [5] 0.037 | tipifarnib -0.236 | [8] -0.19

ASB16 (UniProt Q96NS5)
inactive: lapatinib -0.215 | crizotinib -0.517 | duvelisib -0.074 | doramapimod -0.3 | dasatinib 0.023 | [5] -0.229 | quisinostat -0.237 | [6] -0.009 | [7] 0.045

ATF3 (UniProt P18847)
inactive: crizotinib -0.032 | [1] -0.231 | duvelisib 0.014 | gandotinib 0.149 | tozasertib -0.007 | doramapimod 0.122 | [2] 0.213 | nilotinib 0.14 | [3] -0.181 | dasatinib -0.172 | [4] -0.114 | [5] -0.016 | quisinostat -0.12 | tipifarnib -0.123 | [6] 0.014 | [8] 0.035

ATXN1L (UniProt P0C7T5)
inactive: pictilisib 0.012 | crizotinib 0.031 | [1] 0.023 | gandotinib -0.058 | tozasertib 0.182 | doramapimod -0.01 | bafetinib 0.199 | [2] -0.034 | nilotinib -0.047 | [3] 0.031 | [4] -0.061 | quisinostat -0.014 | tipifarnib 0.106 | [6] 0.031

ATXN2L (UniProt H3BUF6)
inactive: lapatinib -0.049 | crizotinib 0.047 | [1] 0.004 | duvelisib 0.028 | gandotinib 0.115 | tozasertib -0.001 | doramapimod 0.115 | [2] 0.013 | nilotinib -0.027 | [3] -0.043 | dasatinib -0.101 | [4] 0.153 | [5] -0.05 | quisinostat -0.07 | tipifarnib 0.111 | [6] -0.032 | [7] 0.016 | [8] -0.011

ASB3 isoform 3 (UniProt Q9Y575)
inactive: pictilisib 0.194 | tozasertib -0.004 | bafetinib -0.069 | nilotinib -0.019 | [3] -0.029 | [4] -0.136 | tipifarnib 0.021

ATRX (UniProt P46100)
inactive: pictilisib 0.049 | crizotinib -0.082 | [1] 0.062 | duvelisib 0.16 | gandotinib 0.008 | tozasertib 0.026 | doramapimod -0.001 | bafetinib -0.012 | [2] 0.075 | dasatinib 0 | [5] -0.031 | quisinostat -0.076 | [6] 0.143 | [8] -0.267

ATP2C1 isoform 3 (UniProt P98194)
inactive: [1] -0.017 | gandotinib -0.032 | [2] 0.189 | [8] -0.049

AUNIP isoform 2 (UniProt Q9H7T9)
inactive: pictilisib 0.116 | crizotinib 0.004 | [1] -0.115 | duvelisib 0.004 | gandotinib 0.166 | tozasertib -0.218 | doramapimod 0.037 | bafetinib 0.165 | [2] -0.095 | dasatinib -0.007 | [5] 0.024 | quisinostat -0.087 | [6] -0.006 | [8] 0.116

ATP5F1C isoform 2 (UniProt P36542)
inactive: pictilisib -0.008 | crizotinib 0.075 | doramapimod 0.146 | bafetinib -0.106 | quisinostat -0.294 | [6] -0.193

Reprinted at random: two entries already listed
ATXN2 (UniProt F8WB06)
inactive: duvelisib 0.187 | dasatinib -0.074 | [5] -0.053

ASB16 (UniProt Q96NS5)
inactive: lapatinib -0.215 | crizotinib -0.517 | duvelisib -0.074 | doramapimod -0.3 | dasatinib 0.023 | [5] -0.229 | quisinostat -0.237 | [6] -0.009 | [7] 0.045

Going on with the list.

ATXN2L (UniProt Q8WWM7)
inactive: pictilisib -0.045 | crizotinib 0.04 | [1] 0.028 | duvelisib -0.018 | gandotinib 0.031 | tozasertib 0.05 | doramapimod 0.028 | bafetinib -0.057 | [2] -0.009 | nilotinib 0 | [3] 0.034 | dasatinib 0.076 | [4] -0.027 | [5] -0.103 | quisinostat 0.054 | tipifarnib -0.119 | [6] -0.069 | [8] -0.13

B3GALT6 (UniProt Q96L58)
inactive: pictilisib -0.047 | crizotinib -0.123 | duvelisib 0.045 | doramapimod 0.1 | bafetinib -0.066 | dasatinib -0.148 | [5] 0.233 | quisinostat -0.086 | [6] 0.137 | [8] -0.174

ATXN7L3B (UniProt Q96GX2)
inactive: pictilisib 0.057 | crizotinib -0.014 | [1] 0.043 | duvelisib 0.027 | gandotinib 0.048 | tozasertib 0.154 | doramapimod 0.017 | bafetinib -0.073 | [2] 0.038 | nilotinib 0.043 | [3] 0.068 | dasatinib 0.036 | [4] 0.085 | [5] 0.021 | quisinostat -0.111 | tipifarnib 0.009 | [6] 0.002 | [8] 0.014
